The source of these data is the supplement of paper PMC4635364.

The structures appear in SMILES notation. Structures can show the parent of a compound that is named as a salt. The list shows a part of the results. Single values are uncertain here, since repeats match poorly.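 Cells: ReNCell VM human fetal ventral-midbrain neural progenitors, differentiated mitogen-free. Blinded raters compared doublecortin-stained (early neurons) or tyrosine hydroxylase-stained (dopaminergic neurons) images with untreated wells, where 0 means no change. After repeats and both raters were averaged, compounds scoring 2 or above became hits for retesting.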

In assay [1] the test system is ReNCell VM. As to the kind of experiment: neuronal differentiation score (DCX+ cell fraction vs untreated, manual image score) (score (-3 to 3)); higher = more neuronal differentiation. Particulars: 2 uM, 2 weeks.
Assay [2] has as its system ReNCell VM. Briefly: dopaminergic neuron differentiation score (TH+ cell fraction vs untreated, manual image score) (score (0 to 3)); higher = more TH+ dopaminergic neuron differentiation. As to conditions: 2 uM, 4 weeks, BDNF 10 ng/ml + GDNF 10 ng/ml.

Take `O=c1c2ccccc2[nH]c(=S)n1CCN1CCC(=C(c2ccc(F)cc2)c2ccc(F)cc2)CC1` [Diacylglycerol Kinase Inhibitor II]: the neuronal differentiation score with ReNCell VM [1] (library: LOPAC) is inactive: 0. Also, the “dopaminergic neuron differentiation score” value in the assay with ReNCell VM [2] (library: LOPAC) is inactive: 0.
For `COC(=O)N/N=C/c1c[n+]([O-])c2ccccc2[n+]1[O-]` [Carbadox], the neuronal differentiation score in the assay with ReNCell VM [1] (library: Prestwick) was inactive: 0. The “dopaminergic neuron differentiation score” value in the assay with ReNCell VM [2] (library: Prestwick) was inactive: 0.
As to `CN1CCc2cccc3c2[C@H]1Cc1ccc(O)c(O)c1-3` [Apomorphine hydrochloride hemihydrate], the neuronal differentiation score with ReNCell VM [1] (library: LOPAC) is active: 2. Further, the “dopaminergic neuron differentiation score” value in the assay on ReNCell VM [2] (library: LOPAC) was inactive: 1.
On to `CCOC(=O)[C@H](CCc1ccccc1)N[C@@H](C)C(=O)N1[C@H](C(=O)O)C[C@@H]2CCC[C@@H]21`, for which the neuronal differentiation score with ReNCell VM [1] (library: Spectrum) was inactive: 0. Further, in the assay on ReNCell VM [2] (library: Spectrum), the “dopaminergic neuron differentiation score” value was inactive: 0.
In the case of `O=C(O)[C@]1(O)C[C@@H](O)[C@@H](O)[C@H](O)C1` [quinic acid], the neuronal differentiation score in the assay with ReNCell VM [1] (library: Natural) was inactive: 0. For the same molecule, in the assay on ReNCell VM [2] (library: Natural), the “dopaminergic neuron differentiation score” value was inactive: 0.
In the case of `N=C(N)NCCCCN` [Agmatine sulfate], in the assay on ReNCell VM [1] (library: LOPAC), the neuronal differentiation score was inactive: 0. In addition, the “dopaminergic neuron differentiation score” value with ReNCell VM [2] (library: LOPAC) was inactive: 0.
As for `CCC(CC)(CC(=O)Nc1cccc(/C=C/c2nc(C3CCC3)cs2)c1)C(=O)O` [Cinalukast], the neuronal differentiation score in the assay with ReNCell VM [1] (library: Tocriscreen) is inactive: 0. The “dopaminergic neuron differentiation score” value in the assay on ReNCell VM [2] (library: Tocriscreen) is inactive: 0.
Consider `CC(N)CCCC(C)(C)O` (centres undefined), for which, in the assay with ReNCell VM [1] (library: Spectrum), the neuronal differentiation score was inactive: 0. Also, the “dopaminergic neuron differentiation score” value in the assay on ReNCell VM [2] (library: Spectrum) is inactive: 0.
With `CCCCCCCN(CC)CCCC(O)c1ccc(NS(C)(=O)=O)cc1` (centres undefined) [Ibutilide fumarate], the neuronal differentiation score in the assay with ReNCell VM [1] (library: Prestwick) was inactive: 0. The “dopaminergic neuron differentiation score” value in the assay with ReNCell VM [2] (library: Prestwick) was inactive: 0.
In the case of `CC(C)NCC(O)c1cc(O)cc(O)c1` (centres undefined) [Metaproterenol hemisulfate], in the assay on ReNCell VM [1] (library: LOPAC), the neuronal differentiation score was inactive: 0. The “dopaminergic neuron differentiation score” value in the assay with ReNCell VM [2] (library: LOPAC) was inactive: 0.
As to `CC[C@H]1OC(=O)[C@H](C)C(=O)[C@H](C)[C@@H](O[C@@H]2O[C@H](C)C[C@H](N(C)C)[C@H]2O)[C@](C)(OC)C[C@@H](C)C(=O)[C@H](C)[C@H]2N(CCCCn3cnc(-c4cccnc4)c3)C(=O)O[C@]12C`, the neuronal differentiation score in the assay on ReNCell VM [1] (library: Spectrum) is inactive: 0. In the assay with ReNCell VM [2] (library: Spectrum), the “dopaminergic neuron differentiation score” value is inactive: 0.
Take `CN1CCN(c2c(F)cc3c(=O)c(C(=O)O)cn4c3c2SCC4)CC1` [Rufloxacin]: the neuronal differentiation score in the assay on ReNCell VM [1] (library: Prestwick) is inactive: 0. Besides, in the assay on ReNCell VM [2] (library: Prestwick), the “dopaminergic neuron differentiation score” value was inactive: 0.
Regarding `COc1cc(OC)c2c(=O)c(OC)c(-c3ccccc3)oc2c1`, in the assay with ReNCell VM [1] (library: Spectrum), the neuronal differentiation score was inactive: 0. The “dopaminergic neuron differentiation score” value in the assay with ReNCell VM [2] (library: Spectrum) was inactive: 1.
For `Nc1ccc(C(=O)O)c(O)c1`, the neuronal differentiation score in the assay on ReNCell VM [1] (library: Spectrum) was inactive: 0. The “dopaminergic neuron differentiation score” value in the assay with ReNCell VM [2] (library: Spectrum) is inactive: 0.
On to `O=C1NCC2(CCN(CCc3ccccc3)CC2)O1`, for which the neuronal differentiation score with ReNCell VM [1] (library: Spectrum) was inactive: 0. Further, in the assay on ReNCell VM [2] (library: Spectrum), the “dopaminergic neuron differentiation score” value was inactive: 0.
Turning to `O=C(CCc1ccc(O)cc1)c1c(O)cc(O)cc1O[C@@H]1OC(CO)[C@@H](O)[C@@H](O)C1O` (some centres undefined) [Phloridzin], the neuronal differentiation score with ReNCell VM [1] (library: Phytochemical) is inactive: 1. Besides, in the assay with ReNCell VM [2] (library: Phytochemical), the “dopaminergic neuron differentiation score” value is inactive: 0.
Regarding `CC1(C)[C@@H](O)CC[C@]2(C)[C@H]3C(=O)C=C4[C@@H]5C[C@@](C)(C(=O)O)CC[C@]5(C)CC[C@@]4(C)[C@]3(C)CC[C@@H]12` [Glycyrrhetinic Acid], in the assay on ReNCell VM [1] (library: Phytochemical), the neuronal differentiation score was inactive: 0. Besides, in the assay with ReNCell VM [2] (library: Phytochemical), the “dopaminergic neuron differentiation score” value is inactive: 0.
For `C[n+]1c2cc(N)ccc2cc2ccc(N)cc21`, the neuronal differentiation score in the assay on ReNCell VM [1] (library: Spectrum) is inactive: 0. Further, the “dopaminergic neuron differentiation score” value in the assay on ReNCell VM [2] (library: Spectrum) was inactive: 0.
With `CC(C)C[C@H](NC(=O)N1CCCCCC1)C(=O)N[C@H](Cc1cn(C)c2ccccc12)C(=O)N[C@H](Cc1ccccn1)C(=O)O`, the neuronal differentiation score in the assay with ReNCell VM [1] (library: Tocriscreen) was inactive: 0. Also, the “dopaminergic neuron differentiation score” value in the assay with ReNCell VM [2] (library: Tocriscreen) was inactive: 0.
In the case of `C[N+]1(C)[C@@H]2CC[C@H]1C[C@@H](OC(=O)C(O)c1ccccc1)C2` (some centres undefined), in the assay on ReNCell VM [1] (library: Spectrum), the neuronal differentiation score is inactive: 0. The “dopaminergic neuron differentiation score” value in the assay with ReNCell VM [2] (library: Spectrum) is inactive: 1.
Take `CCOCC(O)COc1ccc(NC(=O)CC[S+](C)C)cc1` (centres undefined) [Suplatast tosylate]: the neuronal differentiation score in the assay with ReNCell VM [1] (library: Tocriscreen) is inactive: 0. In addition, in the assay with ReNCell VM [2] (library: Tocriscreen), the “dopaminergic neuron differentiation score” value was inactive: 0.
For `COc1cccc2c1C(=O)c1c(O)c3c(c(O)c1C2=O)C[C@@](O)(C(=O)CO)C[C@@H]3O[C@H]1C[C@H](N)[C@@H](O)[C@H](C)O1`, in the assay on ReNCell VM [1] (library: Spectrum), the neuronal differentiation score was inactive: 0. Also, in the assay on ReNCell VM [2] (library: Spectrum), the “dopaminergic neuron differentiation score” value is inactive: 0.
